Experimental data as given in PMC5679646.
Results are given in words; binding and its absence hold for the method and conditions named. For some of these results: In cells and extracts the contact can be indirect. Some binding calls cover weakened binding; strength is not graded here. For some of these results: Where a sequence is shown, tags or fusion partners need not be part of it.

Amino acid sequences for entries named in this document (tags omitted).
UniProt Q9Y4G2: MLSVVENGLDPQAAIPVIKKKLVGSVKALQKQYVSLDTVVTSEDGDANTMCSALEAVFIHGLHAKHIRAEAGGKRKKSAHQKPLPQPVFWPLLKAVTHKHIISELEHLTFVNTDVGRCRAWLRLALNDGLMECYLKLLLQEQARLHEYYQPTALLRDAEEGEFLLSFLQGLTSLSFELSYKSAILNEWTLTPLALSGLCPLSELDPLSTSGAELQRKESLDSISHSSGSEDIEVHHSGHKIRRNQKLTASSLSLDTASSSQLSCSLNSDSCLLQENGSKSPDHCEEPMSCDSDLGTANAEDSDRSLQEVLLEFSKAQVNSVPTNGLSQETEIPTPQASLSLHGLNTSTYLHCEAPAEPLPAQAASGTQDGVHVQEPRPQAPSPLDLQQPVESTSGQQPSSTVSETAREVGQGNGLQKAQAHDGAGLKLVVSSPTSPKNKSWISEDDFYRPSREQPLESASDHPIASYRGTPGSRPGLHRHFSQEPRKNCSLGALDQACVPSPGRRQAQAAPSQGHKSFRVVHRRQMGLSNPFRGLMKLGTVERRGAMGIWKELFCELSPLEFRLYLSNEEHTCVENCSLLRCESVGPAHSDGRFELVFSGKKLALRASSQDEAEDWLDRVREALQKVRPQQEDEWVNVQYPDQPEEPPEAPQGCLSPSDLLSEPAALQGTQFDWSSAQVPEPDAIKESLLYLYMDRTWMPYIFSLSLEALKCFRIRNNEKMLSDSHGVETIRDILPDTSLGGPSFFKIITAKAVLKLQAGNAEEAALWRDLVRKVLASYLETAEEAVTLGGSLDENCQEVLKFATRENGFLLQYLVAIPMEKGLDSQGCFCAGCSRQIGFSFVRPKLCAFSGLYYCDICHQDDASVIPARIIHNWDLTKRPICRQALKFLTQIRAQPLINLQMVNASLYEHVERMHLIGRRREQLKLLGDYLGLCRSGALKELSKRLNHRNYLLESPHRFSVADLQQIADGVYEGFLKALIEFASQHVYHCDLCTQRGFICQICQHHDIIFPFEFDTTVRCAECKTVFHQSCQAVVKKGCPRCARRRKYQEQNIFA

B1: pGADT7-SKIP (protein, UniProt Q8IWE5 1-1019)
chain: MEPGEVKDRILENISLSVKKLQSYFAACEDEIPAIRNHDKVLQRLCEHLDHALLYGLQDLSSGYWVLVVHFTRREAIKQIEVLQHVATNLGRSRAWLYLALNENSLESYLRLFQENLGLLHKYYVKNALVCSHDHLTLFLTLVSGLEFIRFELDLDAPYLDLAPYMPDYYKPQYLLDFEDRLPSSVHGSDSLSLNSFNSVTSTNLEWDDSAIAPSSEDYDFGDVFPAVPSVPSTDWEDGDLTDTVSGPRSTASDLTSSKASTRSPTQRQNPFNEEPAETVSSSDTTPVHTTSQEKEEAQALDPPDACTELEVIRVTKKKKIGKKKKSRSDEEASPLHPACSQKKCAKQGDGDSRNGSPSLGRDSPDTMLASPQEEGEGPSSTTESSERSEPGLLIPEMKDTSMERLGQPLSKVIDQLNGQLDPSTWCSRAEPPDQSFRTGSPGDAPERPPLCDFSEGLSAPMDFYRFTVESPSTVTSGGGHHDPAGLGQPLHVPSSPEAAGQEEEGGGGEGQTPRPLEDTTREAQELEAQLSLVREGPVSEPEPGTQEVLCQLKRDQPSPCLSSAEDSGVDEGQGSPSEMVHSSEFRVDNNHLLLLMIHVFRENEEQLFKMIRMSTGHMEGNLQLLYVLLTDCYVYLLRKGATEKPYLVEEAVSYNELDYVSVGLDQQTVKLVCTNRRKQFLLDTADVALAEFFLASLKSAMIKGCREPPYPSILTDATMEKLALAKFVAQESKCEASAVTVRFYGLVHWEDPTDESLGPTPCHCSPPEGTITKEGMLHYKAGTSYLGKEHWKTCFVVLSNGILYQYPDRTDVIPLLSVNMGGEQCGGCRRANTTDRPHAFQVILSDRPCLELSAESEAEMAEWMQHLCQAVSKGVIPQGVAPSPCIPCCLVLTDDRLFTCHEDCQTSFFRSLGTAKLGDISAVSTEPGKEYCVLEFSQDSQQLLPPWVIYLSCTSELDRLLSALNSGWKTIYQVDLPHTAIQEASNKKKFEDALSLIHSAWQRSDSLCRGRASRDPWC
B2: FLAG-SKIP (protein, UniProt Q8IWE5 1-1019)
chain: B1 chain

Tests used:
[1] = target: T1, GST tagged-SifA (Salmonella enterica serovar typhimurium) (UniProt Q56061); assay: pull-down; GST or GST tagged-SifA on glutathione resin (blocked with 5% BSA) incubated with lysates of transfected HEK293T cells in TAP lysis buffer, 4°C, 3 hr; four washes in TAP wash buffer; immunoblot; lysates with HA-Vps39 alone or with FLAG-SKIP or FLAG-PLEKHM1; only the target purified
T1 sequence: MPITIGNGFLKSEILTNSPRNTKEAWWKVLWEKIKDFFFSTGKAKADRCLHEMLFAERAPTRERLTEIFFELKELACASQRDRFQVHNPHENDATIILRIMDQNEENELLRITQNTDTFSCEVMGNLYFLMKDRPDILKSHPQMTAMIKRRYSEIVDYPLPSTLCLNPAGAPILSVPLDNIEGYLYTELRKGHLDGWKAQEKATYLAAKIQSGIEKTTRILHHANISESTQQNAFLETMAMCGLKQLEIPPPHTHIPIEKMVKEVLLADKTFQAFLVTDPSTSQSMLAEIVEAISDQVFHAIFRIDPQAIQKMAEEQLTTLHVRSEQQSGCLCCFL

[2] = target: T2, pGBKT7-SifA (Salmonella enterica serovar typhimurium) (UniProt Q56061); assay: two-hybrid; S. cerevisiae AH109; SifA as bait (GAL4-BD), SKIP and PLEKHM1 as prey (GAL4-AD); growth curve in SD-L/-W/-H broth at 30°C, monitored every 4 hr for 48 hr
T2 sequence: T1 sequence

Row | Molecule | binding [1] | binding [2]
1 | FLAG-PLEKHM1 (from UniProt Q9Y4G2 1-1056) | binds | –
2 | pGADT7-PLEKHM1 (from UniProt Q9Y4G2 1-1056) | – | binds
3 | B1 | – | binds
4 | B2 | binds | –
